Structures were worked out from names or drawings and are uncertain.
Assay: Metabolic stability in human liver microsomes;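 also: NADPH-supplemented incubation in 100 mM potassium phosphate buffer, compound loss sampled at 0, 5, 10, 20, 30 and 60 min by LC-MS/MS, first-order kinetics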
Type: in vitro ADME
Conditions: LM Clint; human liver microsomes 0.5 mg protein/mL, test compound 1 μM, 37° C., up to 60 min

**Q.** With `CC(C)n1cnc(-c2ccc(C(F)(F)F)cc2)c1-c1nc(C(=O)Nc2ccc(CCC(=O)O)cc2)c[nH]1` as the compound, how does the “Human Liver Microsome (μM/min/mg)” value read?
**A.** +++ (1-10 μM/min/mg as +++)
